Measurements: US20180230189A1
No constants are given. Whether binding was seen depends on the method and setting. Some entries that bind do so weakly or less than the wild type.

The chains behind the UniProt entries cited, without tags or fusion partners. Where a name states a change or a piece, a line headed by the entry shows the natural chain unless it says otherwise. A line that says so, or that is headed by a name, gives the form on record, which may keep a tag or linker.
UniProt O14786: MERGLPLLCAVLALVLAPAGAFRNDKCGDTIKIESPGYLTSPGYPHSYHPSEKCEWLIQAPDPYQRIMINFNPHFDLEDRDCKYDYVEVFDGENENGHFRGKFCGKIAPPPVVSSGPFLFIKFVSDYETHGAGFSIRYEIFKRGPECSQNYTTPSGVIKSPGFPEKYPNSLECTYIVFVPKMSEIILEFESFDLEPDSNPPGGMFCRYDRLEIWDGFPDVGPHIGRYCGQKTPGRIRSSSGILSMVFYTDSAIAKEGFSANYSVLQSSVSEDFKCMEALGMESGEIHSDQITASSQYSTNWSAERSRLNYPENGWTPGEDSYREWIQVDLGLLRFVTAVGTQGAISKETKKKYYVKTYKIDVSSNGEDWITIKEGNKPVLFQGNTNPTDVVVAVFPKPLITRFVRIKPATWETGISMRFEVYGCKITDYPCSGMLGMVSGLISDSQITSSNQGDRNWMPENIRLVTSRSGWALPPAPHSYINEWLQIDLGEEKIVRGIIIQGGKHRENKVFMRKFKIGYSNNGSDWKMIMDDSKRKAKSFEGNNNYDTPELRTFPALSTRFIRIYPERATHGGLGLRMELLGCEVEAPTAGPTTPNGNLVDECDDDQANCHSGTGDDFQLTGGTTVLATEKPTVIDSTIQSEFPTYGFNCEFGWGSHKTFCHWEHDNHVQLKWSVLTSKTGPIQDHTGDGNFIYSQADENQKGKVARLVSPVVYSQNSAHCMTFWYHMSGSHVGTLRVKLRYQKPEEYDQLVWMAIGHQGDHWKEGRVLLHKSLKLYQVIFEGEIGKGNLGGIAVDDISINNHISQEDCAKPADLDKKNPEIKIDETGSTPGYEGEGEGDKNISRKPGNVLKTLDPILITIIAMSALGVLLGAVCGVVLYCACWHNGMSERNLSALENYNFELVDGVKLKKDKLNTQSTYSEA
VEGF165 (P15692, form named): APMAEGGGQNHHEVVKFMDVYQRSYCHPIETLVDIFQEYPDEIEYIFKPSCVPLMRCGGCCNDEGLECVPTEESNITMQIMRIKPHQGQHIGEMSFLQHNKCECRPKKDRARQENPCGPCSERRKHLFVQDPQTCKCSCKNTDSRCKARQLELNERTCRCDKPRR
UniProt P41159: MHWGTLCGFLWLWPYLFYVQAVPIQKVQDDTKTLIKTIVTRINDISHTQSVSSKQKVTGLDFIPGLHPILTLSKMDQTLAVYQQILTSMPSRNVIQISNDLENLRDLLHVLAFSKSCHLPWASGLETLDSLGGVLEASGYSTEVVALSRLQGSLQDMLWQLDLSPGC

Key:
[1] = biological target: Neuropilin-1 (recombinant protein, BLI of FIG. 1) (human) (UniProt O14786); assay: Bio-layer interferometry (BLI), recombinant proteins
VEGF165 = VEGF165 (UniProt P15692); assay: as above

binding [1]: binds
binding (VEGF165): binds
Substance: Leptin (recombinant protein) (from UniProt P41159 22-167) (ligand)
